Results published in paper PMC10241871.
No constants are given. Whether binding was seen depends on the method and setting. For part of these data: Binding calls can cover weak binding; strength is not graded here. Tags and fused reporters may be left off the sequences shown.

Tests used:
Assay in all cases: two-hybrid; rice HATs in pGBKT7, ACL cDNAs in pGADT7; growth on SD-LTHA (-Leu/-Trp/-His/-Ade) solid medium
[1] = target: T1, HAG702 (homologous to GCN5), yeast two-hybrid fusion (rice (Oryza sativa)) (UniProt Q338B9)
T1 sequence: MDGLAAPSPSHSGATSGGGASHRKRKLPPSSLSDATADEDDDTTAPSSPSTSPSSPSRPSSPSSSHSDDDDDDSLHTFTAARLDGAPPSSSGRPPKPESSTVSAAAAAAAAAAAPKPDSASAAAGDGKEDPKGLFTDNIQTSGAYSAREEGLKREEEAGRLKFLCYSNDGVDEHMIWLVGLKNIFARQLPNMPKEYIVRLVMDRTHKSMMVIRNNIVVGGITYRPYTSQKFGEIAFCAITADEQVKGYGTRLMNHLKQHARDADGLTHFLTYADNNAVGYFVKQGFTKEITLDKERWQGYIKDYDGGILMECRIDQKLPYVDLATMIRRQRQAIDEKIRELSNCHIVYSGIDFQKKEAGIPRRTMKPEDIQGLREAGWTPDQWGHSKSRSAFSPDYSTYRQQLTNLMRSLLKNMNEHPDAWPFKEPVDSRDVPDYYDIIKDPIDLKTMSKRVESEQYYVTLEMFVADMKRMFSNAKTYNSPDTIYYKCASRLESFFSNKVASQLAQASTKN

[2] = target: T2, HAG703 (homologous to ELP3), yeast two-hybrid fusion (rice (Oryza sativa)) (UniProt Q7X7L3)
T2 sequence: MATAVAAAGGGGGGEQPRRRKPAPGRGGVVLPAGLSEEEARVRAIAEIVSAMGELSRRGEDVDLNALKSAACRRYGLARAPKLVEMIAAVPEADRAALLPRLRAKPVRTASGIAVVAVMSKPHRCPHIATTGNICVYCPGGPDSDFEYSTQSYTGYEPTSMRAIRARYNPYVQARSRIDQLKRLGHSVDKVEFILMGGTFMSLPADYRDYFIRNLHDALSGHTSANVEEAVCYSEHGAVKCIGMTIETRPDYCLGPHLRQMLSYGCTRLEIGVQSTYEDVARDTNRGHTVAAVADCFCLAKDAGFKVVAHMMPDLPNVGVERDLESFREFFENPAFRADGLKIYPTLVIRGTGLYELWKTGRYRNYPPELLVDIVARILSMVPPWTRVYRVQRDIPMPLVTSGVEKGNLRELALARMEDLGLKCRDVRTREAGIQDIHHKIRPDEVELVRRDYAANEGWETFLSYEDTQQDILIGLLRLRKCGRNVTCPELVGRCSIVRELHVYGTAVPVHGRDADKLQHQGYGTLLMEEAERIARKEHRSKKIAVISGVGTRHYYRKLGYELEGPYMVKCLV

[3] = target: T3, ADA2, yeast two-hybrid fusion (rice (Oryza sativa)) (UniProt Q75LL6)
T3 sequence: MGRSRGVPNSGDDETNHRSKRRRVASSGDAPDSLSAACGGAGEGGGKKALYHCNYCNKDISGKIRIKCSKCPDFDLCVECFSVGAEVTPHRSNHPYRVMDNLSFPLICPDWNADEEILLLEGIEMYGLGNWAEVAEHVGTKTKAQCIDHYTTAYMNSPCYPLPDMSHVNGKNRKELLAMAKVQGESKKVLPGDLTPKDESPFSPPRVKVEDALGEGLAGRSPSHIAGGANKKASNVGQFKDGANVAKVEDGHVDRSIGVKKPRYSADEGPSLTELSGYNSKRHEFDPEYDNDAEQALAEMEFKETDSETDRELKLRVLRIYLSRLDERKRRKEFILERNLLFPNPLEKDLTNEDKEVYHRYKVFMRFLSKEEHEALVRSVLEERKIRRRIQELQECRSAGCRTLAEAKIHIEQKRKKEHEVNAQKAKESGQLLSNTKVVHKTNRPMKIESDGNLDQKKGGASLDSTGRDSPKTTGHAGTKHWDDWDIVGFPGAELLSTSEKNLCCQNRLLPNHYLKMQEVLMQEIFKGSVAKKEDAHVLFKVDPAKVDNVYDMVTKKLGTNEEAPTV

binding [1]: no binding
binding [2]: binds
binding [3]: binds
Substance: ATP-citrate lyase subunit A2 (ACLA2), yeast two-hybrid fusion (rice (Oryza sativa))
